In the supplement of paper PMC10849652:
The list shows a part of the results.

Amino acid sequences for entries named in this document (tags omitted). A change or cut given only in a name is not applied to a line headed by its entry.
UniProt Q9H7B2: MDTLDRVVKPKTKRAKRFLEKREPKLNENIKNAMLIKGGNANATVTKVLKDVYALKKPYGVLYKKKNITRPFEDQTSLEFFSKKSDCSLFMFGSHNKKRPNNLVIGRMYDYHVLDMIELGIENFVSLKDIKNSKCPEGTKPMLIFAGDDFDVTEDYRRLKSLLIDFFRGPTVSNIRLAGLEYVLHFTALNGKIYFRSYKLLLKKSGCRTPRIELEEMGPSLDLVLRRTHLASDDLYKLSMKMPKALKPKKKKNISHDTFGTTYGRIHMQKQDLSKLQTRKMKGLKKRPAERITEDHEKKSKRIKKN
UniProt O75150, whole entry, looked up: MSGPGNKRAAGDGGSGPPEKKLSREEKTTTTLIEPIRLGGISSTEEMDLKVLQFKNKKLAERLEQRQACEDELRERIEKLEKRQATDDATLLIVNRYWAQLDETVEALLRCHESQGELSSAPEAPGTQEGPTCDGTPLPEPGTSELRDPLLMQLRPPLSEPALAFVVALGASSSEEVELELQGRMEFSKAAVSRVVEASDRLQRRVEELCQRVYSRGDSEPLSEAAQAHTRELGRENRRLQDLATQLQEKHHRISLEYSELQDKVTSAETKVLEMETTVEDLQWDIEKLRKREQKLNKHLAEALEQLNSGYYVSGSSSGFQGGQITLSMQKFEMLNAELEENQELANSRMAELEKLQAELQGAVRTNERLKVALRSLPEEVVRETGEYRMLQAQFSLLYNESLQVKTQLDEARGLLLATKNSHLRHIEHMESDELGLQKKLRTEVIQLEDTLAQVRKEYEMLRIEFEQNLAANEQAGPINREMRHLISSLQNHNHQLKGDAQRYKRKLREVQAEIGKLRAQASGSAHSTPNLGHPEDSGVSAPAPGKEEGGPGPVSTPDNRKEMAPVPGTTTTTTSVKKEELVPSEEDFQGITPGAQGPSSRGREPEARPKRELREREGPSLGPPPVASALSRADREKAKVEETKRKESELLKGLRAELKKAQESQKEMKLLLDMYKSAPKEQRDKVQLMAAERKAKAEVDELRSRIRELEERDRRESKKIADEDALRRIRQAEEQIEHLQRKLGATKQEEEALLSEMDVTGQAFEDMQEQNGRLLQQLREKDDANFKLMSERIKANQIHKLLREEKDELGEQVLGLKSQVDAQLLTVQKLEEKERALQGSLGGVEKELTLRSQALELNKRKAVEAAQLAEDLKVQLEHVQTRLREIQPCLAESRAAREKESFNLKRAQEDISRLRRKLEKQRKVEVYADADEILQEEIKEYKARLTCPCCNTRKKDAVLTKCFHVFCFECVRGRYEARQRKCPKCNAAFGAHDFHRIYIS
UniProt Q96P16: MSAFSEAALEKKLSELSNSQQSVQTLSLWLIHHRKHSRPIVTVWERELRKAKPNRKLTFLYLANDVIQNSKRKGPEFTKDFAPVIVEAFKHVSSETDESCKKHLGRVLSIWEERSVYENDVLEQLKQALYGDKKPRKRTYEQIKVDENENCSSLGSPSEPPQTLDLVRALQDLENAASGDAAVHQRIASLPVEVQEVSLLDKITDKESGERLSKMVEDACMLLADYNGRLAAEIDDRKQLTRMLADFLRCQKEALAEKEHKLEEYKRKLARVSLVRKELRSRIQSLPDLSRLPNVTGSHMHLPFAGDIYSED
UniProt Q5M7Z0: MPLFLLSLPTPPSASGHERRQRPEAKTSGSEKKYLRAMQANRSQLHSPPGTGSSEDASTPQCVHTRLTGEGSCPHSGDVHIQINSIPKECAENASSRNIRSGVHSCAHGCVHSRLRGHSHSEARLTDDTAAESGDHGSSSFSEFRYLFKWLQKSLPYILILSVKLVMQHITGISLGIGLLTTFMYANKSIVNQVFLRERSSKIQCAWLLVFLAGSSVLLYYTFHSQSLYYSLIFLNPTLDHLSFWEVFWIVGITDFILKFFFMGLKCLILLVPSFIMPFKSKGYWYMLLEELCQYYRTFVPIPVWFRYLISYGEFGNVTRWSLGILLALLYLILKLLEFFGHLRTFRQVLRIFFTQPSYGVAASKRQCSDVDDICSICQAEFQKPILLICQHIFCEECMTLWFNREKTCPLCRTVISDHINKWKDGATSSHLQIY
UniProt Q9BY78: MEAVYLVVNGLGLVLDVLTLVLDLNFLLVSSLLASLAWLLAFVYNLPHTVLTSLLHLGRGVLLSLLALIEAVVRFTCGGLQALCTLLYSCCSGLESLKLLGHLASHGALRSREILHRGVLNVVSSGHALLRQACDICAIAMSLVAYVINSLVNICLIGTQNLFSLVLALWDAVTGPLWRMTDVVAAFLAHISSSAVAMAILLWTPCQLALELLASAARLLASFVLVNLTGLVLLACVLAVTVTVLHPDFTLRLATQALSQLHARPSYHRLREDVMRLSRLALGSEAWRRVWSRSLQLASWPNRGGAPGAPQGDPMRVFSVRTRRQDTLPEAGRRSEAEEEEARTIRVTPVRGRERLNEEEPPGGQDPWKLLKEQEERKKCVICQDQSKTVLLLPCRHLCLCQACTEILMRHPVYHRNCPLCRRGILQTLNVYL
UniProt O75582, whole entry, looked up: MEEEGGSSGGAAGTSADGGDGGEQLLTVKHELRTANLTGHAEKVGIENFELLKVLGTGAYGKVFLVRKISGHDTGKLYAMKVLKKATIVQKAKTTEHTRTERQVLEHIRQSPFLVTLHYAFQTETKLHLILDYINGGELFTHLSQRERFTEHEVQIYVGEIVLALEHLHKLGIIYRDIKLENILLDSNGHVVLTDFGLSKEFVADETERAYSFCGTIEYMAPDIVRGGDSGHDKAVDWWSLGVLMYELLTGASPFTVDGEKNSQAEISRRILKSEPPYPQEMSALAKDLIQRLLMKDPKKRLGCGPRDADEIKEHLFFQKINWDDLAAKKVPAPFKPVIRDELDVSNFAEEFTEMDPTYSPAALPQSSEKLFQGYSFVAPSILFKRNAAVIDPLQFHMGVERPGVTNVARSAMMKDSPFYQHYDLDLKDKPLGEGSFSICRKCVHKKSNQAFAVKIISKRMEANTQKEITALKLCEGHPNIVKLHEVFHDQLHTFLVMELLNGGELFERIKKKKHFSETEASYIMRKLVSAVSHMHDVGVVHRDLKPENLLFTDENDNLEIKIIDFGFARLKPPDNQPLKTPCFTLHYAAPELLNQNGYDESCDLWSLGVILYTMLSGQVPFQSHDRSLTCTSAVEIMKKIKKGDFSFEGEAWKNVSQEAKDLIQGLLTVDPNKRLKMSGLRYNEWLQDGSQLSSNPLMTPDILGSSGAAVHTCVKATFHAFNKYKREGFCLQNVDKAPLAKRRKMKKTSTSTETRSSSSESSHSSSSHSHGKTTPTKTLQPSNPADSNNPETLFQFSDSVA
UniProt Q9UBS0: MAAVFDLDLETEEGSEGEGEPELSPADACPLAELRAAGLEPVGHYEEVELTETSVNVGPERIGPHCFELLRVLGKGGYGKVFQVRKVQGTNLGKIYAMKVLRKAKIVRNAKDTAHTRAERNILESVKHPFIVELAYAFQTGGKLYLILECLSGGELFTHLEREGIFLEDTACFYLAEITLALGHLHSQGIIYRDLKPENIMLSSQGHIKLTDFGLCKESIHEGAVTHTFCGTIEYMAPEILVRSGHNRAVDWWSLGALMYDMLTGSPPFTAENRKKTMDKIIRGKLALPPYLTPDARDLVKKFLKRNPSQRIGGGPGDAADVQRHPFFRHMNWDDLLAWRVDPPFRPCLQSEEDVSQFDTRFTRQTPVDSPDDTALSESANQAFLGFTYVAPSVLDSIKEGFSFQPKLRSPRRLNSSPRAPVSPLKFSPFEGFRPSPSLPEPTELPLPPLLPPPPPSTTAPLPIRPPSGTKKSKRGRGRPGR
UniProt Q96EP0: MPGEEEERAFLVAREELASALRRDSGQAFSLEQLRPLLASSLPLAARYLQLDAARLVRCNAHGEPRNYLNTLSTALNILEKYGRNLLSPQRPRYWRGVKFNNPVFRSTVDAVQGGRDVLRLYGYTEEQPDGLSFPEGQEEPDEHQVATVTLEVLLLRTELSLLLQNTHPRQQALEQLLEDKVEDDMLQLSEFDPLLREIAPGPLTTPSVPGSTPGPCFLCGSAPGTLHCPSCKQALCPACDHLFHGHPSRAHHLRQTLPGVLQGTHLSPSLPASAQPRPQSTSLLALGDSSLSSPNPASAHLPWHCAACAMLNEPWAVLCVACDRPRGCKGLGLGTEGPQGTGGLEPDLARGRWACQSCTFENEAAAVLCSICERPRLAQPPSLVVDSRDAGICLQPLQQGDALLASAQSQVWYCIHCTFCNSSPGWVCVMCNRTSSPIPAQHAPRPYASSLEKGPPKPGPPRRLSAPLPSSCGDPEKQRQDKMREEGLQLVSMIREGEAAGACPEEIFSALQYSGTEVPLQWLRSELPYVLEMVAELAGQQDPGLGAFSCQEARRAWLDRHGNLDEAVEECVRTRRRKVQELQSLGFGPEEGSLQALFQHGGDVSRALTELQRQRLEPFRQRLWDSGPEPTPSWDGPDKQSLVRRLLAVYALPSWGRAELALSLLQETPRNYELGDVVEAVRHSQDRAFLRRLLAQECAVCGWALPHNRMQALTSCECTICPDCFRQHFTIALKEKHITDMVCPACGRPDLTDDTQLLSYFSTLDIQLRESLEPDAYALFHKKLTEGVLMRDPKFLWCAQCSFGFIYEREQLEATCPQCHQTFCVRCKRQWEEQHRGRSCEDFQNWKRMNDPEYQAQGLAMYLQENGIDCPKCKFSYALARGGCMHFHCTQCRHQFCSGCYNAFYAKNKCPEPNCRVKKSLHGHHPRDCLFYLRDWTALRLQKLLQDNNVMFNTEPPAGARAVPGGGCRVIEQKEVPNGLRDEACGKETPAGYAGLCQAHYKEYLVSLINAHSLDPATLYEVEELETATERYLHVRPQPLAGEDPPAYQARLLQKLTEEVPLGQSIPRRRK
UniProt Q969K3: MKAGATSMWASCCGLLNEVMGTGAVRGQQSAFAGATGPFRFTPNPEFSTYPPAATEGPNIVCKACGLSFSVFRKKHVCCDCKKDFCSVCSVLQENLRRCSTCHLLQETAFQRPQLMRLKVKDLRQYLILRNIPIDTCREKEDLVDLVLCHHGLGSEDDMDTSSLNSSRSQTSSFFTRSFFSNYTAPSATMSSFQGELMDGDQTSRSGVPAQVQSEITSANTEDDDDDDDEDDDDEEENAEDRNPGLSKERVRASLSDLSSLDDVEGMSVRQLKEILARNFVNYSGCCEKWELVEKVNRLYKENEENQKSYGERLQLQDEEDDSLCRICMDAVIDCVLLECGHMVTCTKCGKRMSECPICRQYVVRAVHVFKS
UniProt Q96CM3: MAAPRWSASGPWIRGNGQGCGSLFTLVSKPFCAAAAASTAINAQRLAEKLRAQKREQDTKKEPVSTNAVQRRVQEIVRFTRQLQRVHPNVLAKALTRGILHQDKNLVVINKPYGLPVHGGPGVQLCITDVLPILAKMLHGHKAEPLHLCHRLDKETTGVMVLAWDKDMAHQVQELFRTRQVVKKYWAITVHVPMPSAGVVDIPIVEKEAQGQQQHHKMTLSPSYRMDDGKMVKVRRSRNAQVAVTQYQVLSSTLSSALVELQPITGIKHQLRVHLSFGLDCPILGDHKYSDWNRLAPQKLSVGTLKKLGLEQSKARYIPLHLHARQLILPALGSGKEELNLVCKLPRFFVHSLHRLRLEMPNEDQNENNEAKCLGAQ
UniProt Q9H4P4: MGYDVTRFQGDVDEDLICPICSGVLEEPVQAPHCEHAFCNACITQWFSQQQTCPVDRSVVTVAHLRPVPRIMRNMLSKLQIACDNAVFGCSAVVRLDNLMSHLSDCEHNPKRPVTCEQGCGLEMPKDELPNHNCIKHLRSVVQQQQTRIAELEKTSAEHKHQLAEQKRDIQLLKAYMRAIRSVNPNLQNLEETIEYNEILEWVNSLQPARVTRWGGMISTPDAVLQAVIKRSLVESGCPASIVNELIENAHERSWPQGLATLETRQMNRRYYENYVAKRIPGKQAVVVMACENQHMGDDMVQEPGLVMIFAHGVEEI

How the values were obtained:
Assay in all cases: log2 fold change, soluble protein after heating vs DMSO (PISA); higher = thermal stabilisation; K562 cells, 10 uM, 30 min; active = over 0.2 and 3.5 SD of the protein, either way, in both replicates (recomputed)
pictilisib = compound: CS(=O)(=O)N1CCN(Cc2cc3nc(-c4cccc5[nH]ncc45)nc(N4CCOCC4)c3s2)CC1 [pictilisib]
Outline: (§1)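 Soluble protein was quantified by TMTpro 16plex LC-MS/MS after channel sums were equalised. It was obtained as the supernatant after 21,000xg for 90 min from pooled aliquots of K562 cells (2×10^6 cells/mL, 10 μM compound, 30 min) heated for 3 min across 48°C-58°C and extracted in PBS with 0.5% NP-40 at 4°C. Thermal stability values are relative to control samples and come from duplicates. They are given as log2 fold changes.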

gandotinib = compound: Cc1cc(Nc2cc(CN3CCOCC3)c3nc(C)c(Cc4ccc(Cl)cc4F)n3n2)n[nH]1 [gandotinib]
Outline: as §1

filanesib = compound: CON(C)C(=O)N1N=C(c2cc(F)ccc2F)S[C@@]1(CCCN)c1ccccc1 [filanesib]
Outline: as §1

zotarolimus = compound: CO[C@H]1C[C@@H]2CC[C@@H](C)[C@@](O)(O2)C(=O)C(=O)N2CCCC[C@H]2C(=O)O[C@H]([C@H](C)C[C@@H]2CC[C@H](n3cnnn3)[C@H](OC)C2)CC(=O)[C@H](C)/C=C(\C)[C@@H](O)[C@@H](OC)C(=O)[C@H](C)C[C@H](C)/C=C/C=C/C=C/1C [zotarolimus]
Outline: as §1

alisertib = compound: COc1cc(Nc2ncc3c(n2)-c2ccc(Cl)cc2C(c2c(F)cccc2OC)=NC3)ccc1C(=O)O [alisertib]
Outline: as §1

[1] = compound: COc1cccc2cc(-c3nc([C@H]4CC[C@H](C(=O)O)CC4)n4ncnc(N)c34)[nH]c12
Outline: as §1

[2] = compound: CS(=O)(=O)c1ccc(-c2cnc(N)c(C(=O)Nc3ccccc3)n2)cc1
Outline: as §1

[3] = compound: C[C@H](C1=CC=C(C=C1)C(=O)NC2=C3C=CNC3=NC=C2)N
Outline: as §1

duvelisib = compound: C[C@H](Nc1ncnc2nc[nH]c12)c1cc2cccc(Cl)c2c(=O)n1-c1ccccc1 [duvelisib]
Outline: as §1

tozasertib = compound: Cc1cc(Nc2cc(N3CCN(C)CC3)nc(Sc3ccc(NC(=O)C4CC4)cc3)n2)n[nH]1 [tozasertib]
Outline: as §1

[4] = compound: Cc1cc(SCc2sc(-c3ccc(C(F)(F)F)cc3)nc2C)ccc1OCC(=O)O
Outline: as §1

ispinesib = compound: Cc1ccc(C(=O)N(CCCN)[C@@H](c2nc3cc(Cl)ccc3c(=O)n2Cc2ccccc2)C(C)C)cc1 [ispinesib]
Outline: as §1

idasanutlin = compound: COc1cc(C(=O)O)ccc1NC(=O)[C@@H]1N[C@@H](CC(C)(C)C)[C@](C#N)(c2ccc(Cl)cc2F)[C@H]1c1cccc(Cl)c1F [idasanutlin]
Outline: as §1

[5] = compound: C[C@@H]1COCCN1C2=NC(=NC(=C2)C3(CC3)S(=O)(=O)C)C4=C5C=CNC5=CC=C4
Outline: as §1

[6] = compound: COC1=CC=C(C=C1)CN2C=CC3=C2C=C(C=C3)C(=O)NO
Outline: as §1

gefitinib = compound: COc1cc2ncnc(Nc3ccc(F)c(Cl)c3)c2cc1OCCCN1CCOCC1 [gefitinib]
Outline: as §1

crizotinib = compound: C[C@@H](Oc1cc(-c2cnn(C3CCNCC3)c2)cnc1N)c1c(Cl)ccc(F)c1Cl [crizotinib]
Outline: as §1

doramapimod = compound: Cc1ccc(-n2nc(C(C)(C)C)cc2NC(=O)Nc2ccc(OCCN3CCOCC3)c3ccccc23)cc1 [doramapimod]
Outline: as §1

[7] = compound: COc1cc2nc(-c3cc(F)ccc3O)nc(N[C@@H]3CNC[C@H]3C(C)(C)O)c2cc1OC
Outline: as §1

lapatinib = compound: CS(=O)(=O)CCNCc1ccc(-c2ccc3ncnc(Nc4ccc(OCc5cccc(F)c5)c(Cl)c4)c3c2)o1 [lapatinib]
Outline: as §1

Measured: log2 fold change

RPF2 (UniProt Q9H7B2)
inactive: pictilisib -0.01 | gandotinib 0.151

RNF40 (UniProt O75150)
inactive: filanesib -0.121 | zotarolimus 0.018 | alisertib 0.265 | [1] 0.287 | [2] -0.107 | [3] -0.084 | duvelisib 0.209 | tozasertib 0.415 | [4] 0.1 | ispinesib -0.142

RPRD1A (UniProt Q96P16)
inactive: filanesib 0.115 | idasanutlin -0.117 | pictilisib -0.001 | [2] -0.144 | [5] 0.157 | duvelisib -0.181 | gandotinib -0.01 | tozasertib 0.014 | [4] 0.19 | ispinesib 0.102

RPS3A (UniProt D6R9B6)
inactive: filanesib 0.228 | idasanutlin 0.079 | [2] -0.014 | [4] 0.069

RPP30 (UniProt Q5VU11)
inactive: [6] 0.005 | gefitinib 0.079 | pictilisib 0.129 | crizotinib 0.049 | duvelisib -0.032 | gandotinib 0.06 | [4] 0.106 | doramapimod 0.039 | ispinesib -0.224

Looked up one by one from the list above (2):
RPF2 (UniProt Q9H7B2)
inactive: pictilisib -0.01 | gandotinib 0.151

RPP30 (UniProt Q5VU11)
inactive: [6] 0.005 | gefitinib 0.079 | pictilisib 0.129 | crizotinib 0.049 | duvelisib -0.032 | gandotinib 0.06 | [4] 0.106 | doramapimod 0.039 | ispinesib -0.224

Further entries.

RPL22L1 (UniProt Q6P5R6)
inactive: [6] 0.13 | filanesib 0.065 | [2] 0.064 | crizotinib -0.023 | [5] 0.024 | doramapimod 0.005

RNFT1 (UniProt Q5M7Z0)
inactive: alisertib -0.342 | [7] -0.163 | gefitinib -0.127 | [1] -0.016 | lapatinib 0.062 | pictilisib 0.046 | [5] 0.05 | gandotinib 0.023 | ispinesib -0.01

RNF26 (UniProt Q9BY78)
inactive: pictilisib 0.065 | gandotinib 0.008 | ispinesib -0.829

RPS6KA5 (UniProt O75582)
inactive: [6] -0.276 | alisertib -0.076 | [7] -0.185 | [1] 0.131 | lapatinib 0.057 | crizotinib -0.393 | [5] 0.045 | doramapimod -0.016 | ispinesib 0.018

RPS19 (UniProt M0R2L9)
inactive: idasanutlin -0.034 | alisertib -0.463 | [7] -0.158 | gefitinib 0.375 | [1] -0.331 | lapatinib -0.341

RPS6KB2 (UniProt Q9UBS0)
inactive: [6] -0.075 | zotarolimus -0.068 | alisertib 0.076 | [1] -0.004 | crizotinib -0.434 | [5] -0.015 | [3] 0.187 | tozasertib -0.075 | doramapimod -0.257

RNF31 (UniProt Q96EP0)
inactive: filanesib 0.044 | gefitinib 0.015 | pictilisib -0.025 | [2] 0.016 | [5] 0.079 | gandotinib 0.156 | tozasertib 0.008

RNF34 isoform 2 (UniProt Q969K3)
inactive: [6] -0.113 | zotarolimus 0.071 | idasanutlin 0.051 | alisertib -0.063 | [7] -0.023 | gefitinib -0.16 | [1] -0.101 | lapatinib -0.089 | pictilisib 0.009 | crizotinib 0.051 | [5] 0.019 | [3] -0.093 | duvelisib -0.107 | gandotinib -0.024 | tozasertib 0.111 | [4] -0.005 | doramapimod -0.035 | ispinesib -0.034

RPL7L1 (UniProt Q6DKI1)
inactive: [6] -0.321 | gefitinib 0.146 | pictilisib 0.002 | crizotinib -0.256 | [5] -0.331 | duvelisib -0.098 | gandotinib 0.034 | [4] -0.098 | doramapimod -0.185 | ispinesib -0.316

RPSA (UniProt F8WD59)
inactive: alisertib 2.31 | [1] -0.02

RPUSD4 (UniProt Q96CM3)
inactive: filanesib 0.398 | zotarolimus -0.018 | idasanutlin 0.12 | alisertib 0.185 | [7] -0.001 | [1] -0.273 | lapatinib 0.049 | pictilisib 0.017 | [2] -0.041 | [5] -0.106 | [3] 0.33 | gandotinib 0.184 | tozasertib 0.012 | ispinesib -0.208

RNF41 (UniProt Q9H4P4)
inactive: idasanutlin -0.031

RPLP0 (UniProt F8VWV4)
inactive: [6] -0.183 | filanesib -0.045 | zotarolimus -0.114 | idasanutlin 0.477 | [2] 0.026 | crizotinib 0.138 | [5] -0.218 | [3] 0.296 | tozasertib -0.058 | doramapimod 0.149
